# The other results are listed elsewhere or left out.
# B1: AT1G80310(18) (Arabidopsis thaliana), Q0WP36 (protein)
# chain: METTTTPLLPGDRSRCGWLRRRLRLKNPLSSELSGAVGDLGTFIPIVLTLTLVSNLDLSTTLIFTGFYNIATGLLFDIPMPVQPMKSIAAVAVSESPHLTPSQIAAAGASTAATLLLLGATGAMSFLYNIIPLPVVRGVQLSQGLQFAFTAIKYVRFNYDTATLKPSSSPRIWLGLDGLILALAALLFIILSTGSGNDREAEDGDLAETSSNESQSRRRRLRLLSSIPSALIVFALGLVLCFIRDPSIFKDLKFGPSKFHILRISWDDWKIGFLRAAIPQIPLSVLNSVIAVCKLSNDLFDKELSATTVSISVGVMNLIGCWFGAMPVCHGAGGLAGQYRFGARSGLSVIFLGIGKLIVGLVFGNSFVRILSQFPIGILGVLLLFAGIELAMASKDMNSKEDSFIMLVCAAVSMTGSSAALGFGCGVVLYLLLKLRTLDCSSVTLFSRSSDESQVDSEAAPRDV
# What was measured:
# Assay in all cases: glycan array binding signal (z-score within array); higher = stronger binding
# Settings in all cases: glycan notation: IUPAC condensed, linker removed
# Fuc(a1-2)Gal = target: Fuc(a1-2)Gal
# How it was run: (§1)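 Glycan array binding is given as a within-array Z-score, which can be read as non-binding when negative. The arrays, 3228 of them, came from the Consortium for Functional Glycomics database and were retained only where the protein sequence was available. Z-scores were averaged across arrays of the same protein sequence at different concentrations or buffers and across linkers.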
# Fuc(a1-2)Gal(b1-3)GalNAc = target: Fuc(a1-2)Gal(b1-3)GalNAc
# How it was run: as §1
# [1] = target: Fuc(a1-2)Gal(b1-3)GalNAc(a1-3)[Fuc(a1-2)]Gal(b1-4)Glc
# How it was run: as §1
# [2] = target: Fuc(a1-2)Gal(b1-3)GalNAc(a1-3)[Fuc(a1-2)]Gal(b1-4)GlcNAc
# How it was run: as §1
# [3] = target: Fuc(a1-2)Gal(b1-3)GalNAc(b1-3)Gal
# How it was run: as §1
# [4] = target: Fuc(a1-2)Gal(b1-3)GalNAc(b1-3)Gal(a1-4)Gal(b1-4)Glc
# How it was run: as §1
# [5] = target: Fuc(a1-2)Gal(b1-3)GalNAc(b1-4)[Neu5Ac(a2-3)]Gal(b1-4)Glc
# How it was run: as §1
# Fuc(a1-2)Gal(b1-3)GlcNAc = target: Fuc(a1-2)Gal(b1-3)GlcNAc
# How it was run: as §1
# [6] = target: Fuc(a1-2)Gal(b1-3)GlcNAc(b1-2)Man(a1-3)[Fuc(a1-2)Gal(b1-3)GlcNAc(b1-2)Man(a1-6)]Man(b1-4)GlcNAc(b1-4)GlcNAc
# How it was run: as §1
# [7] = target: Fuc(a1-2)Gal(b1-3)GlcNAc(b1-2)Man(a1-3)[Fuc(a1-2)Gal(b1-3)GlcNAc(b1-2)Man(a1-6)]Man(b1-4)GlcNAc(b1-4)[Fuc(a1-6)]GlcNAc
# How it was run: as §1
# [8] = target: Fuc(a1-2)Gal(b1-3)GlcNAc(b1-3)Gal(b1-4)Glc
# How it was run: as §1
# [9] = target: Fuc(a1-2)Gal(b1-3)GlcNAc(b1-3)GalNAc
# How it was run: as §1
# [10] = target: Fuc(a1-2)Gal(b1-3)GlcNAc(b1-3)[Fuc(a1-2)Gal(b1-3)GlcNAc(b1-6)]GalNAc
# How it was run: as §1
# [11] = target: Fuc(a1-2)Gal(b1-3)GlcNAc(b1-3)[Gal(b1-4)GlcNAc(b1-6)]Gal(b1-4)Glc
# How it was run: as §1
# [12] = target: Fuc(a1-2)Gal(b1-3)GlcNAc(b1-3)[Neu5Ac(a2-6)Gal(b1-4)GlcNAc(b1-6)]Gal(b1-4)Glc
# How it was run: as §1
# [13] = target: Fuc(a1-2)Gal(b1-3)GlcNAc6S
# How it was run: as §1
# [14] = target: Fuc(a1-2)Gal(b1-3)[Fuc(a1-4)]GlcNAc
# How it was run: as §1
# [15] = target: Fuc(a1-2)Gal(b1-3)[Fuc(a1-4)]GlcNAc(b1-2)Man(a1-3)[Fuc(a1-2)Gal(b1-3)[Fuc(a1-4)]GlcNAc(b1-2)Man(a1-3)]Man(b1-4)GlcNAc(b1-4)GlcNAc
# How it was run: as §1
# [16] = target: Fuc(a1-2)Gal(b1-3)[Fuc(a1-4)]GlcNAc(b1-2)Man(a1-3)[Fuc(a1-2)Gal(b1-3)[Fuc(a1-4)]GlcNAc(b1-2)Man(a1-6)]Man(b1-4)GlcNAc(b1-4)[Fuc(a1-6)]GlcNAc(b1-4)[Fuc(a1-6)]GlcNAc
# How it was run: as §1
# [17] = target: Fuc(a1-2)Gal(b1-3)[Fuc(a1-4)]GlcNAc(b1-3)[Fuc(a1-3)[Gal(b1-4)]GlcNAc(b1-6)]Gal(b1-4)Glc
# How it was run: as §1
# [18] = target: Fuc(a1-2)Gal(b1-3)[Fuc(a1-4)]GlcNAc(b1-3)[Gal(b1-4)GlcNAc(b1-6)]Gal(b1-4)Glc
# How it was run: as §1
# [19] = target: Fuc(a1-2)Gal(b1-4)Fuc(a1-3)]GlcNAc(b1-2)Man(a1-3)[Fuc(a1-2)Gal(b1-4)[Fuc(a1-3)]GlcNAc(b1-2)Man(a1-6)]Man(b1-4)GlcNAc(b1-4)GlcNAc
# How it was run: as §1
# Fuc(a1-2)Gal(b1-4)Glc = target: Fuc(a1-2)Gal(b1-4)Glc
# How it was run: as §1
# Fuc(a1-2)Gal(b1-4)Glc6S = target: Fuc(a1-2)Gal(b1-4)Glc6S
# How it was run: as §1
# Fuc(a1-2)Gal(b1-4)GlcNAc = target: Fuc(a1-2)Gal(b1-4)GlcNAc
# How it was run: as §1
# [20] = target: Fuc(a1-2)Gal(b1-4)GlcNAc(b1-2)Man
# How it was run: as §1
# [21] = target: Fuc(a1-2)Gal(b1-4)GlcNAc(b1-2)Man(a1-3)[Fuc(a1-2)Gal(b1-4)GlcNAc(b1-2)Man(a1-6)]Man(b1-4)GlcNAc(b1-4)GlcNAc
# How it was run: as §1
# [22] = target: Fuc(a1-2)Gal(b1-4)GlcNAc(b1-2)Man(a1-3)[Fuc(a1-2)Gal(b1-4)GlcNAc(b1-2)Man(a1-6)]Man(b1-4)GlcNAc(b1-4)[Fuc(a1-6)]GlcNAc
# How it was run: as §1
# [23] = target: Fuc(a1-2)Gal(b1-4)GlcNAc(b1-2)[Fuc(a1-2)Gal(b1-4)GlcNAc(b1-4)]Man(a1-3)[Fuc(a1-2)Gal(b1-4)GlcNAc(b1-2)Man(a1-6)]Man(b1-4)GlcNAc(b1-4)GlcNAc
# How it was run: as §1
# [24] = target: Fuc(a1-2)Gal(b1-4)GlcNAc(b1-3)Gal(b1-4)GlcNAc
# How it was run: as §1
binder,measurement,setting,value
B1,glycan array binding signal (z-score),Fuc(a1-2)Gal,1.66
same,glycan array binding signal (z-score),Fuc(a1-2)Gal(b1-3)GalNAc,-0.601
same,glycan array binding signal (z-score),[1],1.38
same,glycan array binding signal (z-score),[2],-0.505
same,glycan array binding signal (z-score),[3],0.503
same,glycan array binding signal (z-score),[4],-0.413
same,glycan array binding signal (z-score),[5],-0.845
same,glycan array binding signal (z-score),Fuc(a1-2)Gal(b1-3)GlcNAc,0.429
same,glycan array binding signal (z-score),[6],-1.03
same,glycan array binding signal (z-score),[7],0.177
same,glycan array binding signal (z-score),[8],-0.053
same,glycan array binding signal (z-score),[9],-0.358
same,glycan array binding signal (z-score),[10],-0.893
same,glycan array binding signal (z-score),[11],2.42
same,glycan array binding signal (z-score),[12],-0.892
same,glycan array binding signal (z-score),[13],-0.258
same,glycan array binding signal (z-score),[14],-0.61
same,glycan array binding signal (z-score),[15],-0.097
same,glycan array binding signal (z-score),[16],1.67
same,glycan array binding signal (z-score),[17],0.22
same,glycan array binding signal (z-score),[18],-0.71
same,glycan array binding signal (z-score),[19],4.04
same,glycan array binding signal (z-score),Fuc(a1-2)Gal(b1-4)Glc,0.358
same,glycan array binding signal (z-score),Fuc(a1-2)Gal(b1-4)Glc6S,-0.979
same,glycan array binding signal (z-score),Fuc(a1-2)Gal(b1-4)GlcNAc,-0.288
same,glycan array binding signal (z-score),[20],1.59
same,glycan array binding signal (z-score),[21],3.83
same,glycan array binding signal (z-score),[22],2.34
same,glycan array binding signal (z-score),[23],1.65
same,glycan array binding signal (z-score),[24],0.099

# Fetched one by one from above (2):
binder,measurement,setting,value
B1,glycan array binding signal (z-score),[1],1.38
same,glycan array binding signal (z-score),[6],-1.03
